Measurements as given in PMC11782663.
These are yes or no findings as the source states them, for the method shown. Binding seen in cells or lysates may run through a third protein. For some assays here: A result given as binding can be weak or reduced; the word gives no strength.

The chains behind the UniProt entries cited, without tags or fusion partners. Where a name states a change or a piece, a line headed by the entry shows the natural chain unless it says otherwise.
UniProt Q08775: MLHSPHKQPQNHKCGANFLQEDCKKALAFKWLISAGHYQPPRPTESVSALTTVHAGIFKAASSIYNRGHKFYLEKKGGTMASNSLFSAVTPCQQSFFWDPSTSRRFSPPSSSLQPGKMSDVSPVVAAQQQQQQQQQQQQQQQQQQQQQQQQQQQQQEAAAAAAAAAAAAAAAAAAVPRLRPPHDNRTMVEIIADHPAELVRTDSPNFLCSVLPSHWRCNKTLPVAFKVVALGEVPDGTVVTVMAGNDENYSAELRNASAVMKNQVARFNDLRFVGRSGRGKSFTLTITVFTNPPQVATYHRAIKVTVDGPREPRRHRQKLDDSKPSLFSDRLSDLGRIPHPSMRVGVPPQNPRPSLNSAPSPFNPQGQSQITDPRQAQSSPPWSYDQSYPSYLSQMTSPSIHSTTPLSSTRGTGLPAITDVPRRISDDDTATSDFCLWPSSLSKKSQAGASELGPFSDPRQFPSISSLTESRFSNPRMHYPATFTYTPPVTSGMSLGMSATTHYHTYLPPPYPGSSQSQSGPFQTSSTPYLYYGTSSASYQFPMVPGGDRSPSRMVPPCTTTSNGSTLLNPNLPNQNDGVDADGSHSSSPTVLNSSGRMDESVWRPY

Key:
[1] = molecular target: Runt-related transcription factor 2 (RUNX2), endogenous (mouse (endogenous in BMSCs)) (UniProt Q08775); assay: co-IP; endogenous proteins; lysate of BMSCs after 4 days of osteoblastic differentiation (text: C3H10T1/2 cells); anti-Thoc6 or anti-RUNX2 antibody, IgG as control, on protein A/G magnetic beads, 4 °C overnight; lysis buffer 20 mmol/L Tris-HCl pH 7.4, 150 mmol/L NaCl, 1 mmol/L EDTA, 1% Triton-X100; western blot
[2] = molecular target: wild-type (WT) FLAG-tagged RUNX2; assay: co-IP; C3H10T1/2 cells co-transfected with Thoc6 and WT FLAG-Runx2 or FLAG-tagged N-terminal deletion mutants, 48 h; whole cell extracts immunoprecipitated with FLAG or Thoc6 antibody, western blot with Thoc6 or FLAG antibody
[3] = molecular target: FLAG-tagged RUNX2 N-terminal deletion mutant ΔNLS; assay: as above
[4] = molecular target: FLAG-tagged RUNX2 N-terminal deletion mutant ΔAD; assay: as above
[5] = molecular target: FLAG-tagged RUNX2 N-terminal deletion mutant ΔRUNT; assay: as above

Binder | binding [1] | binding [2] | binding [3] | binding [4] | binding [5]
Thoc6, endogenous (protein, UniProt Q5U4D9 1-341) MEHAAPLAVPLGQAEVFQALQRLHMTIFSQSVSPCGKFLAAGNNYGQIAIFSLSAALSSEAKEESKKPVVVFHAHDGPVYSMVSTDRHLLSAGDGEVKGWLWAEILKKGCKELWRRQPPYRTSLEVPEINALLLVPKENSLILAGGDCQLHSMDLETGAFTRALRGHTDYIHCLALRERSPEVLSGGEDGAVRLWDLRIAKEVQTIEVYKHEECSRPHNGRWIGCLATDSDWMVCGGGPALTLWHLRSSTPTTVFPIRAPQKHVTFYQDLILSAGQGCCVNHWQLSGELKAQVPGSSPGLLSLSLNQQPAAPECKVLTASGNSCRVDVFTNLGYRAFSLSF | binds |  |  |  | 
Thoc6 expressed from a transfected plasmid (protein, UniProt Q5U4D9 1-341) MEHAAPLAVPLGQAEVFQALQRLHMTIFSQSVSPCGKFLAAGNNYGQIAIFSLSAALSSEAKEESKKPVVVFHAHDGPVYSMVSTDRHLLSAGDGEVKGWLWAEILKKGCKELWRRQPPYRTSLEVPEINALLLVPKENSLILAGGDCQLHSMDLETGAFTRALRGHTDYIHCLALRERSPEVLSGGEDGAVRLWDLRIAKEVQTIEVYKHEECSRPHNGRWIGCLATDSDWMVCGGGPALTLWHLRSSTPTTVFPIRAPQKHVTFYQDLILSAGQGCCVNHWQLSGELKAQVPGSSPGLLSLSLNQQPAAPECKVLTASGNSCRVDVFTNLGYRAFSLSF |  | binds | no binding | binds | no binding
